Results reported in doi:10.1101/2024.10.02.616374.
Read-outs that look alike come from different tables or passages of the source. These are yes or no findings as the source states them, for the method shown. In cells and extracts the contact can be indirect. Some entries that bind do so weakly or less than the wild type. Sequences can lack the tags named with a protein. Blank lines part the entries; values can stand above or below the binder they belong to.

Tests used:
Assay in all cases: co-IP
[1] = biological target: T1, nicotinic acetylcholine receptor (nAChR) subunit β1, endogenously tagged with smGFP-FLAG (β1^FLAG) (Drosophila (endogenous, tagged locus)) (UniProt P04755)
T1 sequence: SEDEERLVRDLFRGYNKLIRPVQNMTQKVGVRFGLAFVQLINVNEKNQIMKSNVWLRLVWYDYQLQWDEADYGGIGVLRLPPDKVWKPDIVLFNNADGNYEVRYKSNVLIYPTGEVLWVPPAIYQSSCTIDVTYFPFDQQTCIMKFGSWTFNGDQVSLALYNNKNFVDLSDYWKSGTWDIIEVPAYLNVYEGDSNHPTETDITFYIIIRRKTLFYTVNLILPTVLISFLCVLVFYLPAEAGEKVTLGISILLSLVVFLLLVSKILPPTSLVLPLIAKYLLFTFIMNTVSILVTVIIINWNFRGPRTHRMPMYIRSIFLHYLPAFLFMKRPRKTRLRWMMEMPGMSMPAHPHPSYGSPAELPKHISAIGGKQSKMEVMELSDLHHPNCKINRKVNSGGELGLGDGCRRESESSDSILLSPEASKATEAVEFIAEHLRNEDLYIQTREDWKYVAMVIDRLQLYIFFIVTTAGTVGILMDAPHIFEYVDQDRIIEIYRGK

[2] = biological target: T1, nicotinic acetylcholine receptor (nAChR) subunit β1, endogenously tagged with smGFP-FLAG (β1^FLAG) (Drosophila (endogenous, tagged locus)); remark: listed apart in the source
[3] = biological target: T2, nicotinic acetylcholine receptor (nAChR) subunit α1, endogenously tagged with smGFP-V5 (α1^V5) (Drosophila (endogenous, tagged locus)) (UniProt P09478)
T2 sequence: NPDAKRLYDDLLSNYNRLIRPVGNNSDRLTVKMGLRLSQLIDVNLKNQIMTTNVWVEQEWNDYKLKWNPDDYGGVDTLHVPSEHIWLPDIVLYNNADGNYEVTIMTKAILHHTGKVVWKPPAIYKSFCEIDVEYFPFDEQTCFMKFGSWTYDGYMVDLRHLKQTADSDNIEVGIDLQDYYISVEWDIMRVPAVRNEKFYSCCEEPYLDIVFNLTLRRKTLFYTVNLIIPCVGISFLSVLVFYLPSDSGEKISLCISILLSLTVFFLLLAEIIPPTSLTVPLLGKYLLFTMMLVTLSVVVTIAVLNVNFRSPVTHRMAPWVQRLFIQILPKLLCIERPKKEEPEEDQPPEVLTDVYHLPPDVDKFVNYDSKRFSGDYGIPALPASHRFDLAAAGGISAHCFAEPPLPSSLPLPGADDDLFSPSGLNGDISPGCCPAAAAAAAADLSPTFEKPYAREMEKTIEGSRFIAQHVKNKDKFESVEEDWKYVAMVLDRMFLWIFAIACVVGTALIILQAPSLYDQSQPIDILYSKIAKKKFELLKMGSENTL

[4] = biological target: T2, nicotinic acetylcholine receptor (nAChR) subunit α1, endogenously tagged with smGFP-V5 (α1^V5) (Drosophila (endogenous, tagged locus)); remark: listed apart in the source

binding [1]: binds
binding [2]: binds
B1: nicotinic acetylcholine receptor (nAChR) subunit α1, endogenously tagged with smGFP-V5 (α1^V5) (receptor, UniProt P09478 22-567)
chain: T2 sequence

binding [3]: binds
binding [4]: binds
B2: nicotinic acetylcholine receptor (nAChR) subunit β1, endogenously tagged with smGFP-FLAG (β1^FLAG) (receptor, UniProt P04755 25-521)
chain: T1 sequence
